# Measured values published in US10800792B2, “Inhibitors of Bruton's tyrosine kinase and method of their use” (JANSSEN PHARMACEUTICA NV, priority 2015, dated 2020).
# Sequences of proteins named here, by UniProt entry; tags and fusion partners are left off. Residues count along the entry.
# UniProt Q06187, 389-659 limits assumed: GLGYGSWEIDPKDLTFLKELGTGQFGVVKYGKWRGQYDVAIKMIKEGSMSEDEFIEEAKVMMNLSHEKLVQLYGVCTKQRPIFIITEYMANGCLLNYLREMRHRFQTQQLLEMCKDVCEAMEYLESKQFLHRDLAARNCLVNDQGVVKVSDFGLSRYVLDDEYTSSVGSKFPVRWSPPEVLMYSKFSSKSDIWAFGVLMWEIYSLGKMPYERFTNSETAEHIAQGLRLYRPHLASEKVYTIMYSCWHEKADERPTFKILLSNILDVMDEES
# Structures were worked out from names or drawings and are uncertain.
# Target: unphosphorylated-BTK kinase domain (UP-BTK), GST-tagged human BTK (389-659aa) (Homo sapiens (Human), UniProt Q06187)
# Assay: BTK kinase Lanthascreen binding assay
# Conditions: Lanthascreen tracer competition, 60 minutes incubation; pIC50 = negative log of the IC50 in molar
structure (smiles),measurement,value
C=CC(=O)N1CCC[C@@H](NC(=O)c2sc3nccc4c3c2NC(=O)N4c2ccnc(-c3ccccc3)c2C)C1,BTK_I_binding pIC50,<6
